# Results: US20250325576A1, “COMPOSITIONS FOR USE IN CARTILAGE BREAKDOWN” (Société des Produits Nestlé S.A., priority 2013, published 2025)
# At least one structure is not confirmed: it was looked up by name or label, or the drawing left a doubt.
# What was measured:
# [1] = tested on: catabolic enzymes active in cartilage breakdown; assay: Catabolic enzymes / proteases associated with cartilage breakdown in an in vitro model of cartilage (FIGS. 1 and 3, Example 1); format: cell-based, bovine
# ADAMTS-5 = ADAMTS-5 mRNA expression relative to GAPDH, bovine primary chondrocytes in alginate beads (real-time PCR); format: cell-based; settings: 1.5 μM each, 3 days
# MMP-13 = MMP-13 mRNA expression relative to GAPDH, bovine primary chondrocytes in alginate beads (real-time PCR); format: cell-based; settings: 1.5 μM each, 3 days
# Coll 2-1 NO2 = assay: Coll2-1NO2 biomarker (type II collagen breakdown) by competitive ELISA, Hartley guinea pig OA model; format: in vivo; settings: daily dose in diet during 31 weeks, vs control
# Hartley guinea pigs = assay: Spontaneous development of osteoarthritis in Hartley guinea pigs, knee histology OARSI score; format: in vivo, guinea pig; settings: for OA score: daily dose in diet during 31 weeks, week 35, vs control
# PGE2 = PGE2 biomarker by competitive ELISA, Hartley guinea pig OA model; format: in vivo; settings: after 35 weeks of treatments
# [2] = disease conditions (IL1a 10 ng/ml), vs IL1a
# [3] = normal conditions (absence of IL1a), vs CTL-
Structure (SMILES),effect on catabolic enzymes / proteases associated with cartilage breakdown [1],ADAMTS-5 mRNA expression relative to GAPDH (ADAMTS-5; [2]),ADAMTS-5 mRNA expression relative to GAPDH (ADAMTS-5; [3]),MMP-13 mRNA expression relative to GAPDH (MMP-13; [2]),MMP-13 mRNA expression relative to GAPDH (MMP-13; [3]),collagen breakdown measured by levels of Coll2-1 NO2 in plasma (Coll 2-1 NO2),OA score (Hartley guinea pigs),cartilage breakdown in an animal model of OA (Hartley guinea pigs; summary statement),PGE2 levels in plasma (PGE2)
"OCCc1ccc(O)c(O)c1 [Hydroxytyrosol, hydroxytyrosol]",inhibit catabolic enzymes,decrease expression of ADAMTS-5,decrease expression of ADAMTS-5,decrease expression of MMP-13,decrease expression of MMP-13,,,,
"C/C=C1/[C@H](O[C@@H]2O[C@H](CO)[C@@H](O)[C@H](O)[C@H]2O)OC=C(C(=O)OC)[C@H]1CC(=O)OCCc1ccc(O)c(O)c1 [Oleuropein, oleuropein]",,decrease expression of ADAMTS-5,decrease expression of ADAMTS-5,decrease expression of MMP-13,decrease expression of MMP-13,decrease appearance of breakdown products of collagen,decrease OA score,prevent cartilage breakdown,decrease PGE2 levels in plasma
C[C@@H]1O[C@@H](OC[C@H]2O[C@@H](Oc3c(-c4ccc(O)c(O)c4)oc4cc(O)cc(O)c4c3=O)[C@H](O)[C@@H](O)[C@@H]2O)[C@H](O)[C@H](O)[C@H]1O [rutin],,,,,,decrease collagen breakdown,decrease OA score,,
